Test results published in paper PMC5548489.

Chains of the proteins cited; added tags and fusions are not shown.
UniProt P03372: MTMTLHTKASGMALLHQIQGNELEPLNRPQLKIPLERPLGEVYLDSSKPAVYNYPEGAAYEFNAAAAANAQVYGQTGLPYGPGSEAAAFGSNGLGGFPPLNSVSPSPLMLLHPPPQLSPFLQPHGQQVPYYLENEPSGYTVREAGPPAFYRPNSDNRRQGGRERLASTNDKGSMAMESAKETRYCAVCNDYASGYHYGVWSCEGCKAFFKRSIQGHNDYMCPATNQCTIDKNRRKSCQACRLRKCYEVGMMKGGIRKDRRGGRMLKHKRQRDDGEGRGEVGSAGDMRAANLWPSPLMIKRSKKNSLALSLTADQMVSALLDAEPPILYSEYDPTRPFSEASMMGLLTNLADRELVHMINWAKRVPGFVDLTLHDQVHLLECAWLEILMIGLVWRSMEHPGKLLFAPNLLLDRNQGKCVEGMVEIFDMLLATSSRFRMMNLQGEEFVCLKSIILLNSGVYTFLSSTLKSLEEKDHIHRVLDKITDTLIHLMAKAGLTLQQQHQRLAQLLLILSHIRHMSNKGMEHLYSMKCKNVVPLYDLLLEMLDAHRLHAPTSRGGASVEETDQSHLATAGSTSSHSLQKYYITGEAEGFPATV

Target: estrogen receptor alpha (ER) (human (endogenous in MCF-7 and ZR-75)) (UniProt P03372)
Assay: affinity purification with mass spectrometry; anti-ER antibody (Santa Cruz sc-8002) on Dynabeads Protein G, 1.5 mg lysate of MCF-7 or ZR-75 cells overnight at 4°C; cells starved, vehicle or 10 µM ERX-11 for 2 hr, then 10 nM E2 for 2 hr; the named proteins are ER binders whose co-precipitation was disrupted by ERX-11

binding: binds
B1: PDS5B (protein, UniProt Q9NTI5 1-1447)
chain: MAHSKTRTNDGKITYPPGVKEISDKISKEEMVRRLKMVVKTFMDMDQDSEEEKELYLNLALHLASDFFLKHPDKDVRLLVACCLADIFRIYAPEAPYTSPDKLKDIFMFITRQLKGLEDTKSPQFNRYFYLLENIAWVKSYNICFELEDSNEIFTQLYRTLFSVINNGHNQKVHMHMVDLMSSIICEGDTVSQELLDTVLVNLVPAHKNLNKQAYDLAKALLKRTAQAIEPYITNFFNQVLMLGKTSISDLSEHVFDLILELYNIDSHLLLSVLPQLEFKLKSNDNEERLQVVKLLAKMFGAKDSELASQNKPLWQCYLGRFNDIHVPIRLECVKFASHCLMNHPDLAKDLTEYLKVRSHDPEEAIRHDVIVSIVTAAKKDILLVNDHLLNFVRERTLDKRWRVRKEAMMGLAQIYKKYALQSAAGKDAAKQIAWIKDKLLHIYYQNSIDDRLLVERIFAQYMVPHNLETTERMKCLYYLYATLDLNAVKALNEMWKCQNLLRHQVKDLLDLIKQPKTDASVKAIFSKVMVITRNLPDPGKAQDFMKKFTQVLEDDEKIRKQLEVLVSPTCSCKQAEGCVREITKKLGNPKQPTNPFLEMIKFLLERIAPVHIDTESISALIKQVNKSIDGTADDEDEGVPTDQAIRAGLELLKVLSFTHPISFHSAETFESLLACLKMDDEKVAEAALQIFKNTGSKIEEDFPHIRSALLPVLHHKSKKGPPRQAKYAIHCIHAIFSSKETQFAQIFEPLHKSLDPSNLEHLITPLVTIGHIALLAPDQFAAPLKSLVATFIVKDLLMNDRLPGKKTTKLWVPDEEVSPETMVKIQAIKMMVRWLLGMKNNHSKSGTSTLRLLTTILHSDGDLTEQGKISKPDMSRLRLAAGSAIVKLAQEPCYHEIITLEQYQLCALAINDECYQVRQVFAQKLHKGLSRLRLPLEYMAICALCAKDPVKERRAHARQCLVKNINVRREYLKQHAAVSEKLLSLLPEYVVPYTIHLLAHDPDYVKVQDIEQLKDVKECLWFVLEILMAKNENNSHAFIRKMVENIKQTKDAQGPDDAKMNEKLYTVCDVAMNIIMSKSTTYSLESPKDPVLPARFFTQPDKNFSNTKNYLPPEMKSFFTPGKPKTTNVLGAVNKPLSSAGKQSQTKSSRMETVSNASSSSNPSSPGRIKGRLDSSEMDHSENEDYTMSSPLPGKKSDKRDDSDLVRSELEKPRGRKKTPVTEQEEKLGMDDLTKLVQEQKPKGSQRSRKRGHTASESDEQQWPEEKRLKEDILENEDEQNSPPKKGKRGRPPKPLGGGTPKEEPTMKTSKKGSKKKSGPPAPEEEEEEERQSGNTEQKSKSKQHRVSRRAQQRAESPESSAIESTQSTPQKGRGRPSKTPSPSQPKKNVRVGRSKQAATKENDSSEEVDVFQGSSPVDDIPQEETEEEEVSTVNVRRRSAKRERR

binding: binds
B2: LIG3 (protein, UniProt P49916 43-1009)
chain: LLHGHPLFLRRKPVLSFQGSHLRSRATYLVFLPGLHVGLCSGPCEMAEQRFCVDYAKRGTAGCKKCKEKIVKGVCRIGKVVPNPFSESGGDMKEWYHIKCMFEKLERARATTKKIEDLTELEGWEELEDNEKEQITQHIADLSSKAAGTPKKKAVVQAKLTTTGQVTSPVKGASFVTSTNPRKFSGFSAKPNNSGEAPSSPTPKRSLSSSKCDPRHKDCLLREFRKLCAMVADNPSYNTKTQIIQDFLRKGSAGDGFHGDVYLTVKLLLPGVIKTVYNLNDKQIVKLFSRIFNCNPDDMARDLEQGDVSETIRVFFEQSKSFPPAAKSLLTIQEVDEFLLRLSKLTKEDEQQQALQDIASRCTANDLKCIIRLIKHDLKMNSGAKHVLDALDPNAYEAFKASRNLQDVVERVLHNAQEVEKEPGQRRALSVQASLMTPVQPMLAEACKSVEYAMKKCPNGMFSEIKYDGERVQVHKNGDHFSYFSRSLKPVLPHKVAHFKDYIPQAFPGGHSMILDSEVLLIDNKTGKPLPFGTLGVHKKAAFQDANVCLFVFDCIYFNDVSLMDRPLCERRKFLHDNMVEIPNRIMFSEMKRVTKALDLADMITRVIQEGLEGLVLKDVKGTYEPGKRHWLKVKKDYLNEGAMADTADLVVLGAFYGQGSKGGMMSIFLMGCYDPGSQKWCTVTKCAGGHDDATLARLQNELDMVKISKDPSKIPSWLKVNKIYYPDFIVPDPKKAAVWEITGAEFSKSEAHTADGISIRFPRCTRIRDDKDWKSATNLPQLKELYQLSKEKADFTVVAGDEGSSTTGGSSEENKGPSGSAVSRKAPSKPSASTKKAEGKLSNSNSKDGNMQTAKPSAMKVGEKLATKSSPVKVGEKRKAADETLCQTKVLLDIFTGVRLYLPPSTPDFSRLRRYFVAFDGDLVQEFDMTSATHVLGSRDKNPAAQQVSPEWIWACIRKRRLVAPC

Results are given in words; binding and its absence hold for the method and conditions named. In cells and extracts the contact can be indirect. Here binding means that the protein was enriched with, or labelled near, the bait; the list need not be complete. One block for each binder: values may come before it.
